Mtb growth Cornell: 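Whole-cell assay for inhibitors of Mycobacterium tuberculosis growth, labelled Cornell in the record; the read-out is not stated. The concentration is filed as 10 mM, unlikely as a test dose, so the dose is not known. The record gives no direction; compounds strong in two other growth screens of this library score well above the rest, so higher reads as stronger inhibition. About 53,000 compounds were tested under these conditions; 1.7% (about 900) showed 50% or more at least once.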
Mtb heat-shock: 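Assay on Mycobacterium tuberculosis, filed only as a heat shock assay from Cornell; the read-out is not stated. The concentration is filed as 10 mM, unlikely as a test dose, so the dose is not known. Direction is inferred from retests: higher values go with stronger inhibition. About 69,000 compounds were tested under these conditions; 1.4% (about 930) showed 50% or more at least once.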

The filed quantity is “Percent Effect” (%).
How 0% and 100% were set is not recorded. Most values in the screen are low, and negative values occur.
Compounds were drawn at random from those tested, without regard to their results.
A dash means the value is not listed here; it may have been measured.

SMILES,Mtb growth Cornell,Mtb heat-shock
Cc1ccc(N2CC3(COCCN(Cc4ccncc4)C3)OCC2=O)s1.O=C(O)C(F)(F)F.O=C(O)C(F)(F)F (stereo not given),17%,-10.4%
Cc1nc(NCCO)cc(C(C)Cn2nc(C)c(C)c2C)n1 (stereo not given),-14.61%,6.038%
Cc1cc(CN(C)C(=O)NC2CCC(O)CC2)no1 (stereo not given),8.72%,15.56%
Cc1ccc(NC(=O)Nc2c(O)oc3ccccc3c2=O)cc1C,-3.373%,-16.77%
Cc1cc(O)n(-c2ccc3nnc(C)n3n2)n1,8.538%,20.82%
Cc1cc(C)n(CCNCc2cc(-c3ccc(F)cc3)c[nH]c2=O)n1,19.1%,-0.553%
NC(=O)c1ccc(C2CCCN2C(=O)CCn2nnc3ccccc32)s1 (stereo not given),13.61%,0.7555%
Cc1nc(N2CCN(C(=O)c3ccccn3)CC2)c2c(n1)c(C)nn2C,-,3.366%
O=C(c1cnc(-c2cccnc2)nc1)N1CCC(c2ccncc2)CC1,8.927%,-14.49%
Cc1nc(N2CC[C@@H](c3ccc4ccccc4c3)[C@H](O)C2)no1,-6.622%,-7.455%
CCc1noc(C(C)N2CCN(CCN3CCCC3=O)CC2)n1 (stereo not given),12.44%,2.604%
CN(C)Cc1csc(-c2nccn2Cc2ccc(C(=O)O)cc2)c1,-,-25.4%
COc1ccc(OC)c(C(C(=O)O)N2CCSCC2)c1 (stereo not given),-,17.24%
Cc1ccccc1N1CCN(C2CCCN(C(=O)CCC(C)C)C2)CC1 (stereo not given),-,-7.732%
CCNC(=O)N(C)C(c1cccnc1)C(C)C (stereo not given),-34.99%,6.155%
CCC(=O)N1CCC2(CC1)COc1ccccc1S(=O)(=O)N(C)C2,-10.83%,-7.214%
CC(C)c1noc(CN(C)C(c2ccc(F)cc2)c2cccnc2)n1 (stereo not given),-13.39%,-10.84%
CN1CC2(CCN(CC3CC3)CC2)COc2ccccc2S1(=O)=O.O=C(O)C(F)(F)F,-,-26.67%
CCCOc1ccc(NC(=O)NCCC(=O)N(C)C)cc1Cl,8.713%,21.75%
Cc1nc[nH]c1CN1CCn2nc(CN3CC[C@H](F)C3)cc2C1,-74.84%,25.2%
NC(=O)C1CCN(C(=O)c2ccn(-c3cccc(Cl)c3)n2)C1 (stereo not given),-,-1.716%
Cn1nc(C2CN(C(=O)c3cccnc3)C2)c2nccnc21,-9.45%,-16.11%
O=C(Cn1c(=O)n(Cc2ccco2)c2ncccc21)Nc1ccccn1,-1.642%,-13.04%
CC(C)c1noc(C(C)N2CCN(Cc3ccccc3C#N)CC2)n1 (stereo not given),18.49%,-38.22%
[H][C@@]12C[C@H](NC(=O)Cc3nc4nc(C)cc(C)n4n3)CN1CCN(C)C2,-4.245%,5.789%
COCCN1CCN(C(=O)C(c2cccc(F)c2)N(C)C)CC1 (stereo not given),14.14%,0.4705%
Cc1csc2c(N3CCC(NCCCC4CCOC4)CC3)ncnc12 (stereo not given),1.811%,-15.1%
CS(=O)(=O)N1C[C@@H](F)[C@@H](OCc2nc3ccccc3o2)C1,-8.654%,-0.551%
CCCn1nc2c(cc1=O)CN(CCCN1CCCC1=O)CC2,-1.672%,25.8%
O=c1c2cccnc2cnn1CC(O)c1cccc(Cl)c1 (stereo not given),-,-24.9%
[H][C@]12CN(C(=O)C3CC3)CCN1C[C@@H](C(N)=O)[C@@H]2c1ccccc1,13.55%,4.853%
CCC(NS(C)(=O)=O)c1ccccc1C (stereo not given),30.32%,-9.052%
CC(C)(C)n1cc(C(=O)NCCN2CCOCC2)c2cccnc21,-33.97%,6.861%
Cc1nc(-c2ccco2)ccc1C(=O)N1CCCC1Cn1cccn1 (stereo not given),-,3.278%
CS(=O)(=O)c1cccc(OCC(=O)N2CCCC2c2ccc[nH]2)c1 (stereo not given),58.54%,9.848%
N#Cc1ccc(NCCCOCC2CCOC2)c(F)c1 (stereo not given),-,14%
Cc1cc(C[C@@H]2COC[C@H]2NCc2ccc(C(F)(F)F)cc2)on1.O=C(O)CC(O)(CC(=O)O)C(=O)O,-1.931%,-2.336%
Cc1cnn(C2CCCN(C(=O)c3ccc4c(c3)CCC4)C2)c1 (stereo not given),10.97%,-14.78%
CCc1cccc(NC(=O)CNc2ccccc2OCCC(=O)OC)c1,45.3%,-28.21%
O=C1CCCc2cc(S(=O)(=O)NCc3ccccn3)ccc2N1,7.499%,-6.189%
CC(C)c1ncc2c(n1)CN(Cc1ccc(C(N)=O)cc1)CC2,-,-11.14%
N#Cc1cccnc1NCc1ccc(S(=O)(=O)NCC2CCCO2)cc1 (stereo not given),-11.22%,9.944%
CCOCCn1nc(C)cc1C(=O)N1CC[C@](C)(O)C(C)(C)C1,20.52%,-6.776%
CNC(=O)c1cccc(CCNC2CCSc3ccccc32)c1 (stereo not given),8.127%,-1.227%
Cc1ccc(F)c(C(=O)N2C[C@@H](C(=O)O)[C@H](c3ccccc3)C2)c1Cl,-,-8.339%
Cc1cncc(C2CCN(Cc3ccsc3)CC2)n1,41.74%,3.078%
CCc1ccccc1NC(=O)NCc1nnc(SC)n1C,-6.778%,-1.614%
CSCc1ccc(N2CCC(C(O)Cc3ccccc3)CC2)nc1 (stereo not given),-,-44.92%
CC(C)NS(=O)(=O)c1cc(C(=O)O)cc(-c2ccc(CN(C)C)cc2)c1,-16.7%,-7.812%
CCNC(=O)C1(Cc2cc(-c3ccccc3)no2)CCCN(C(C)C)C1 (stereo not given),7.882%,3.814%
Cc1cc(C(=O)NCCc2c(C)nn(C)c2C)nc(N2CCCCC2)n1,2.465%,9.775%
Cc1cc(C)n(-c2ccccc2NC(=O)NCCCN(C)S(C)(=O)=O)n1,-,2.413%
CCN(CC)S(=O)(=O)c1ccc(CNC(=O)N2CCC(C#N)CC2)cc1,5.699%,-15.21%
O=C(O)C(F)(F)F.O=C(O)C(F)(F)F.O=C(O)C(F)(F)F.[H][C@@]12OCCN(Cc3cccnc3)[C@@]1([H])CC[C@H]2OCCN1CCCC1,37.78%,-8.684%
Cc1ccc(N2CCC3(CCCN(C(=O)c4cnccn4)C3)C2)nn1 (stereo not given),-,-8.607%
Cc1nc(CCCN2CCOCC2)n(Cc2ccc(F)cc2)n1,-1.636%,8.433%
O=C(c1ccoc1)N1CCN(Cc2ccccc2F)CC1,-10.42%,-12.93%
Cc1cccnc1CC(C)N(C)C(=O)c1cccs1 (stereo not given),-,-22.29%
COCCN1CC2(CCN(C(=O)c3ccno3)CC2)c2ccccc21.O=C(O)C(F)(F)F,-25.4%,-26.52%
Cc1occc1C(=O)N1CCC2(CCN(Cc3nccs3)C2)CC1.O=C(O)C(F)(F)F,16.29%,15.61%
[H][C@@]12CN(Cc3cccnc3)C[C@]1([H])CN(C(=O)c1cccn1C)C2,12.27%,-1.999%
COCc1c(C(=O)NC2CCCC2)nnn1-c1ccc(C)cc1,-,-15.95%
O=C(NCc1cnc2n1CCN(Cc1nccs1)C2)c1ccno1.O=C(O)C(F)(F)F,-34.35%,8.303%
[H][C@@]12CN(Cc3nccs3)C[C@]1([H])CN(C(=O)c1cnc(C)cn1)C2,-1.001%,-2.192%
Cc1cnc2c(S(=O)(=O)N(C)C3CCS(=O)(=O)C3)cccc2c1 (stereo not given),-11.41%,-30.39%
Cc1csc2ncnc(N3CCC(Cn4cc(C(C)(C)O)nn4)CC3)c12,14.41%,-3.133%
Clc1ccc(NCc2nnc(C3CC3)o2)cc1Cl,31.6%,16.89%
Cc1ccc(C2(CN3CCN(c4ncccn4)CC3)CCNCC2)nc1,-,7.618%
CCOc1cc(CN(C)CCCO)ccc1OC(F)F,13.35%,-5.31%
CC(=O)N1CCCC1c1nc(C)no1 (stereo not given),-,-23.3%

The last 6 entries again:

SMILES	Mtb growth Cornell	Mtb heat-shock
Cc1cnc2c(S(=O)(=O)N(C)C3CCS(=O)(=O)C3)cccc2c1 (stereo not given)	-11.41%	-30.39%
Cc1csc2ncnc(N3CCC(Cn4cc(C(C)(C)O)nn4)CC3)c12	14.41%	-3.133%
Clc1ccc(NCc2nnc(C3CC3)o2)cc1Cl	31.6%	16.89%
Cc1ccc(C2(CN3CCN(c4ncccn4)CC3)CCNCC2)nc1	-	7.618%
CCOc1cc(CN(C)CCCO)ccc1OC(F)F	13.35%	-5.31%
CC(=O)N1CCCC1c1nc(C)no1 (stereo not given)	-	-23.3%

Measurements from “University of Dundee, Small-Polar-MMV Screening Library” (2021), ChEMBL document CHEMBL3988442.